Experimental data reported in PMC11347226.
These are yes or no findings as the source states them, for the method shown. Binding seen in cells or lysates may run through a third protein. Some results given as binding are weak or reduced against the parent protein; the word gives no strength.

The chains behind the UniProt entries cited, without tags or fusion partners. Where a name states a change or a piece, a line headed by the entry shows the natural chain unless it says otherwise. A line that says so, or that is headed by a name, gives the form on record, which may keep a tag or linker.
UniProt P01108: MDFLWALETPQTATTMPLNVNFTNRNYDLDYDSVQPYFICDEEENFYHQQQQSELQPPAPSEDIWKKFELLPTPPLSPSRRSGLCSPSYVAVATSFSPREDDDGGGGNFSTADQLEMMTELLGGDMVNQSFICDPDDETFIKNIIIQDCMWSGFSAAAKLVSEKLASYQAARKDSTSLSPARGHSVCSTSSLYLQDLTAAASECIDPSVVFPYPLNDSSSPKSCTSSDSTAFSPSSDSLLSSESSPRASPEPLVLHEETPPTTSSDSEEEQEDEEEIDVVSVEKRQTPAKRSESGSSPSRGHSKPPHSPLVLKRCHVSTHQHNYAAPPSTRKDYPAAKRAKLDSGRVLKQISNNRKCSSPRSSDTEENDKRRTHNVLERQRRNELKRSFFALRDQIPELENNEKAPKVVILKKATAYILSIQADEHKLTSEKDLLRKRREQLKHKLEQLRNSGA
UniProt Q9Y265: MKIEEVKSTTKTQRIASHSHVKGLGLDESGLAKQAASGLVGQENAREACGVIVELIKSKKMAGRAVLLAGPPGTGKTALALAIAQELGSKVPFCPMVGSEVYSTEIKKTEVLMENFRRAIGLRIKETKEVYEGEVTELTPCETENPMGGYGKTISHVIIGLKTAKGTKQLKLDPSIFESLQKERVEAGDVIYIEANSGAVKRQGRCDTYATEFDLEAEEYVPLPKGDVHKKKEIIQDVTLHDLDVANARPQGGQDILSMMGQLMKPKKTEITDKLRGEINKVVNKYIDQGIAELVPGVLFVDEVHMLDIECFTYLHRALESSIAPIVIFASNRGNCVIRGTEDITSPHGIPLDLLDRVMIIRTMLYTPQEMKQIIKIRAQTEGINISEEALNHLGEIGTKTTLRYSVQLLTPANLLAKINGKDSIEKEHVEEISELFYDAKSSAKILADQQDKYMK
RUVBL1^Δ94-118 (Q9Y265, form named): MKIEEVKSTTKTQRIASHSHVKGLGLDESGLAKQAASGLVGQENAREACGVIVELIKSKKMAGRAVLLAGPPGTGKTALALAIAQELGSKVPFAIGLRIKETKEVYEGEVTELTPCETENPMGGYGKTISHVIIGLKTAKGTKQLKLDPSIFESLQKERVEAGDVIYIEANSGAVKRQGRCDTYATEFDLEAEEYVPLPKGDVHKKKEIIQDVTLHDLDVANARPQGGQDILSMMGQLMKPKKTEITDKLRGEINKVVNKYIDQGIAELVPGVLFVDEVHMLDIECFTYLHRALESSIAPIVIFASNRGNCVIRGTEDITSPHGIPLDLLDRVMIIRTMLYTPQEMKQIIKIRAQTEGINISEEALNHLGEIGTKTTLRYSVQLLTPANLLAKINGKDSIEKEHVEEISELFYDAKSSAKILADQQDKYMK
RUVBL1^Δ102-107 (Q9Y265, form named): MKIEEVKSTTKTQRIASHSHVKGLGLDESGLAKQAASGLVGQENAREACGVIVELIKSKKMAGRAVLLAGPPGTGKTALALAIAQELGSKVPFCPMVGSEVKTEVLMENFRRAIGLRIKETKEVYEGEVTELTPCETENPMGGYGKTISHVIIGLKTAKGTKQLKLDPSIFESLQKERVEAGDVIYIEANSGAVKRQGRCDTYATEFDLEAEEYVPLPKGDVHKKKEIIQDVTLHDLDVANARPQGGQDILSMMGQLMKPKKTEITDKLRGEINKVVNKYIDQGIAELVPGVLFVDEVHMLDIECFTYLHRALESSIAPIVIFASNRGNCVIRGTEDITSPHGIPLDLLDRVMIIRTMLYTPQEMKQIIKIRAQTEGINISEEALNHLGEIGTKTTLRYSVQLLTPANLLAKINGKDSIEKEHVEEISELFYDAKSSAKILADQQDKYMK

These substances were tested against MYC (UniProt P01108) (assay: co-IP; co-immunoprecipitation in KPC cells expressing RUVBL1 variants; which partner was precipitated is not told).

Substance | binding
RUVBL1^WT (from UniProt Q9Y265 1-456) (enzyme) | binds
RUVBL1^Δ94-118 (from UniProt Q9Y265 1-456) (enzyme) | no binding
RUVBL1^Δ102-107 (from UniProt Q9Y265 1-456) (enzyme) | no binding
